The other results are listed elsewhere or left out. The main result of the screen is listed elsewhere. These columns were measured beside it and carry no call. Compounds called inactive in the main read-out are mostly missing here. Potencies come from curve fits of mixed quality, noted in brackets.
Experiment: IkB Signaling
Details: ABC-DLBCL IkBa-CBG/CBR dual luciferase ratio (green luciferase fused to IkBa over red control in OCI-Ly3 lymphoma cells), 4 h; measured here: control luc red channel unless noted
Procedure, shortened: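 In this assay, an IκBα–CBG68 fusion accumulates when IKK-driven degradation is blocked; native CBR normalizes for cell number. OCI-Ly3 cells were treated 4 h with compound and doxycycline, then green and red light read after Chroma-Glo addition.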

Row | SMILES | AC50
1 | CC(C)Oc1ccc(CNC(=O)c2ccc3c(c2)N(C)C(=O)C2CCCCN32)cc1 (stereo not drawn) | 10 µM [falling, partial curve]
2 | Cc1nn(-c2nnc(C)c(=O)[nH]2)c(C)c1SCC(=O)Nc1ccc(F)cc1 | 5.01 µM [falling, partial curve]
3 | Cc1ccc(N2CC(NC(=O)C3CCCC3)CC2=O)cc1C (stereo not drawn) | 6.31 µM [falling, single point]
4 | O=C(COc1ccccc1Cl)Nc1nc(-c2ccc(F)cc2)ns1 | 39.8 µM [falling, single point]
5 | CCN1CCN(c2cc(C)c3cc(NC(=O)/C=C/c4ccc(OCCC(C)C)cc4)ccc3n2)CC1 | 15.8 µM [falling, partial curve]
6 | O=C(CSc1nccn1-c1ccc(F)cc1)Nc1cccc2ccccc12 | 15.8 µM [falling, partial curve]
7 | CCc1nnc(SCc2nc(-c3cccc(C)c3)oc2C)c2cc3sc(C)cc3n12 | 25.1 µM [falling, single point]
8 | O=C(CCN1Cc2ccccc2C1)c1ccc2c(c1)OCCO2 | 7.94 µM [falling, partial curve]
9 | COc1ccc(CCNC(=O)Cc2ccc(NC(=O)N3CCSc4ncccc43)cc2)cc1OC | 25.1 µM [falling, single point]
10 | Nc1nc(CSc2n[nH]c(-c3ccccc3)n2)nc(Nc2ccccc2)n1 | 12.6 µM [falling, partial curve]
11 | O=C(Cn1c(=O)n(Cc2ccc(F)cc2)c(=O)c2sc3ccccc3c21)Nc1ccc(F)cc1F | 10 µM [falling, partial curve, poor fit]
12 | CN(Cc1ccc(-n2cccn2)cc1)C(=O)c1cnn2c1NC(c1ccco1)CC2C(F)(F)F (stereo not drawn) | 15.8 µM [falling, partial curve]
13 | COc1ccc(C(=O)N2CCN(c3nc4c(OC)cccc4s3)CC2)cc1OC | 39.8 µM [falling, single point]
14 | COc1cccc(CNC(=O)Cn2cccc2C(=O)c2ccccc2)c1 | 39.8 µM [falling, single point]
15 | COc1ccc(-c2nc(-c3cccs3)c(-c3cccs3)[nH]2)cc1O | 15.8 µM [falling, partial curve]
16 | O=C(COc1ccccc1)Nc1nc2ccccc2[nH]1 | 3.98 µM [falling, partial curve]
17 | CC(C)COc1ccc(C(=O)N(Cc2cccc(F)c2)C2CCS(=O)(=O)C2)cc1 (stereo not drawn) | 20 µM [falling, single point]
18 | CCOc1ccc(S(=O)(=O)NCc2cccn2Cc2cccc(C)c2)cc1 | 15.8 µM [falling, partial curve, poor fit]

Ordered by SMILES length (smallest number first): part of the list above.
Row | SMILES | AC50
16 | O=C(COc1ccccc1)Nc1nc2ccccc2[nH]1 | 3.98 µM [falling, partial curve]
2 | Cc1nn(-c2nnc(C)c(=O)[nH]2)c(C)c1SCC(=O)Nc1ccc(F)cc1 | 5.01 µM [falling, partial curve]
12 | CN(Cc1ccc(-n2cccn2)cc1)C(=O)c1cnn2c1NC(c1ccco1)CC2C(F)(F)F (stereo not drawn) | 15.8 µM [falling, partial curve]

From PubChem BioAssay AID445 (National Center for Advancing Translational Sciences (NCATS), 2006)
